This is an account of results in PMC8384837.

Common to all, as to details: yeast three-hybrid, YBZ-1, SC-Leu-His + 0.5 mM 3-AT, 4 days
For test [1], the target named is T1, PUM1 PUF domain R4-ANC N971A + H972N + Q975C (Homo sapiens) (UniProt Q14671).
T1 sequence: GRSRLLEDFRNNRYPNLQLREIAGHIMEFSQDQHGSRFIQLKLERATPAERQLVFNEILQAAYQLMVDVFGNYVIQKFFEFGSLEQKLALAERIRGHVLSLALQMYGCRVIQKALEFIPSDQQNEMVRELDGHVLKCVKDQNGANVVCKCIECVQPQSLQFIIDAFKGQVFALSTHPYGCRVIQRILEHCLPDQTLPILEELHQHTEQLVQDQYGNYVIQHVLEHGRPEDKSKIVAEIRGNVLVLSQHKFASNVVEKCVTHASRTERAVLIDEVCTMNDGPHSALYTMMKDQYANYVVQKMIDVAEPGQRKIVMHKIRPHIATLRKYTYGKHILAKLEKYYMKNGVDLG

Test [2] addresses T2, PUM1 PUF domain R4-ANL N971A + H972N + Q975L (Homo sapiens) (UniProt Q14671).
T2 sequence: T1 sequence with C148L

In test [3] the target is T3, PUM1 PUF domain R4-ANT N971A + H972N + Q975T (Homo sapiens) (UniProt Q14671).
T3 sequence: T1 sequence with C148T

Test [4] has as its target T4, PUM1 PUF domain R4-ARR N971A + H972R + Q975R (Homo sapiens) (UniProt Q14671).
T4 sequence: T1 sequence with N145R, C148R

The target of test [5] is T5, PUM1 PUF domain R4-EHR N971E + Q975R (Homo sapiens) (UniProt Q14671).
T5 sequence: T1 sequence with A144E, N145H, C148R

In test [6] the target is T6, PUM1 PUF domain R4-EYR N971E + H972Y + Q975R (Homo sapiens) (UniProt Q14671).
T6 sequence: T1 sequence with A144E, N145Y, C148R

Test [7] deals with T7, PUM1 PUF domain R4-FAA N971F + H972A + Q975A (Homo sapiens) (UniProt Q14671).
T7 sequence: T1 sequence with A144F, N145A, C148A

The target in test [8] is T8, PUM1 PUF domain R4-GNL N971G + H972N + Q975L (Homo sapiens) (UniProt Q14671).
T8 sequence: T1 sequence with A144G, C148L

For test [9], the target named is T9, PUM1 PUF domain R4-GNR N971G + H972N + Q975R (Homo sapiens) (UniProt Q14671).
T9 sequence: T1 sequence with A144G, C148R

Test [10] has as its target T10, PUM1 PUF domain R4-GNT N971G + H972N + Q975T (Homo sapiens) (UniProt Q14671).
T10 sequence: T1 sequence with A144G, C148T

Test [11] concerns the target T11, PUM1 PUF domain R4-GPR N971G + H972P + Q975R (Homo sapiens) (UniProt Q14671).
T11 sequence: T1 sequence with A144G, N145P, C148R

Test [12] deals with T12, PUM1 PUF domain R4-GSQ N971G + H972S (Homo sapiens) (UniProt Q14671).
T12 sequence: T1 sequence with A144G, N145S, C148Q

The target of test [13] is T13, PUM1 PUF domain R4-HNA N971H + H972N + Q975A (Homo sapiens) (UniProt Q14671).
T13 sequence: T1 sequence with A144H, C148A

The target of test [14] is T14, PUM1 PUF domain R4-HRV N971H + H972R + Q975V (Homo sapiens) (UniProt Q14671).
T14 sequence: T1 sequence with A144H, N145R, C148V

For test [15], the target named is T15, PUM1 PUF domain R4-KSQ N971K + H972S (Homo sapiens) (UniProt Q14671).
T15 sequence: T1 sequence with A144K, N145S, C148Q

Test [16] addresses T16, PUM1 PUF domain R4-MNG N971M + H972N + Q975G (Homo sapiens) (UniProt Q14671).
T16 sequence: T1 sequence with A144M, C148G

Test [17] deals with T17, PUM1 PUF domain R4-PYR N971P + H972Y + Q975R (Homo sapiens) (UniProt Q14671).
T17 sequence: T1 sequence with A144P, N145Y, C148R

The target of test [18] is T18, PUM1 PUF domain R4-QGA N971Q + H972G + Q975A (Homo sapiens) (UniProt Q14671).
T18 sequence: T1 sequence with A144Q, N145G, C148A

Test [19] has as its target T19, PUM1 PUF domain R4-VNS N971V + H972N + Q975S (Homo sapiens) (UniProt Q14671).
T19 sequence: T1 sequence with A144V, C148S

Test [20] has as its target T20, PUM1 PUF domain R4-VPT N971V + H972P + Q975T (Homo sapiens) (UniProt Q14671).
T20 sequence: T1 sequence with A144V, N145P, C148T

Residue numbers refer to the chain shown, from its start. This is one part of the list.

For the sequence “GGCUAGAACUAGUGGAUCCCCCGGCGCCCGGCGGCUCGAGCCCGGGUAAGUGUAAAUAGUCUGCAUGCCGCCGGGCGCCAUGCCUGCAGGUCGACUCUAGAAAACAUG”, the binding signal (log2 enrichment (interaction score)) in test [1] is -0.15; in [2] it was -1.18; in [3], -1.11; in test [4], -3.49; in test [5] it was -0.53; in test [6], -0.74. For the same sequence, the binding signal (log2 enrichment (interaction score)) in [7] is -0.17; in test [8] it was -0.52; in [9], -0.45; in test [10], -0.86; in test [11], -0.11; in test [12] it was -1.15. Further, the binding signal (log2 enrichment (interaction score)) in test [13] is -0.48; in [14], -0.17; in [15], -1.07; in [16], -0.9; in [17], -1.23; in test [18], -0.91. Moreover, the values for the binding signal (log2 enrichment (interaction score)) in test [19] and in [20] were -1.28 and -0.66, respectively.
